Experimental data published in US20080160574A1 (KOREA ADVANCED INSTITUTE OF SCIENCE AND TECHNOLOGY KAIST, published 2008).
Results are given in words; binding and its absence hold for the method and conditions named. Some binding calls cover weakened binding; strength is not graded here.

The chains behind the UniProt entries cited, without tags or fusion partners. Where a name states a change or a piece, a line headed by the entry shows the natural chain unless it says otherwise.
UniProt Q02763: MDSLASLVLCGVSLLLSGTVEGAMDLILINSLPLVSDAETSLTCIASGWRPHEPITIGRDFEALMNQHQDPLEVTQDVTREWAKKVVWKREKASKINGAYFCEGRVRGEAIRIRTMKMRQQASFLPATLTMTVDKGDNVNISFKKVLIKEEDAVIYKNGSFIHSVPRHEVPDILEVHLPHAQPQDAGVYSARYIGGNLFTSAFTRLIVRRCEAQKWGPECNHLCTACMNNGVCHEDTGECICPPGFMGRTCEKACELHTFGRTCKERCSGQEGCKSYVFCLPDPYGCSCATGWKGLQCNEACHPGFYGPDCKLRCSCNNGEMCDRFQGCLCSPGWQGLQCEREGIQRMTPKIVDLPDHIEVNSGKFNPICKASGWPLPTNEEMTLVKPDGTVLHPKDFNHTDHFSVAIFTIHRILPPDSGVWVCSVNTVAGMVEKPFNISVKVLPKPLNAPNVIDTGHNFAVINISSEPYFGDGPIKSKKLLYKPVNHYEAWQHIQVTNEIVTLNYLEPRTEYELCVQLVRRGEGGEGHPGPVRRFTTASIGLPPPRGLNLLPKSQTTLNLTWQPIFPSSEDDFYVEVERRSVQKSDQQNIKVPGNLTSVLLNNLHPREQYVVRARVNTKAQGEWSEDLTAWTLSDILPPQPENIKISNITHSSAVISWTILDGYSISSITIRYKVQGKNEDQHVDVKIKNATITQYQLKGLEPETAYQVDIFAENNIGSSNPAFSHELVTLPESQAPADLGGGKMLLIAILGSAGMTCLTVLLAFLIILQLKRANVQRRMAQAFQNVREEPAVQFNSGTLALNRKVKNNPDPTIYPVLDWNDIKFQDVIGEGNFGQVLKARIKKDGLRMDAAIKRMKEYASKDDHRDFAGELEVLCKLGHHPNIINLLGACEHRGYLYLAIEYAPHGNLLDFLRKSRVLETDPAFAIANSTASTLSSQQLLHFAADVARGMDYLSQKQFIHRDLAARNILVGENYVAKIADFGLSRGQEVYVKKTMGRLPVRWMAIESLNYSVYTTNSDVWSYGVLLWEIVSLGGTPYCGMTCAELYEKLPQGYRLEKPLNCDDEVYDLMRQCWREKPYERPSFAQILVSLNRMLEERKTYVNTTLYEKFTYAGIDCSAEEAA

Legend:
[1] = target: soluble Tie2-Fc (fusion of the ectodomain of Tie-2 receptor and the Fc domain of human IgG1, R&D Inc) (human) (UniProt Q02763); test: in vitro binding assay (pull-down)
[2] = target: soluble Tie2-Fc (fusion of the ectodomain of Tie-2 receptor and the Fc domain of human IgG1, R&D Inc) (human) (UniProt Q02763); test: Biacore (SPR), Tie2-Fc immobilised on the sensor chip, analytes at 60 nM
[3] = target: soluble Tie2-Fc (fusion of the ectodomain of Tie-2 receptor and the Fc domain of human IgG1, R&D Inc) (human) (UniProt Q02763); test: Biacore, dissociation step, Tie2-Fc immobilized; not disrupted by HCl pH 4.0-2.0 or 1M NaCl
[4] = target: soluble Tie2-Fc (fusion of the ectodomain of Tie-2 receptor and the Fc domain of human IgG1, R&D Inc) (human) (UniProt Q02763); test: Biacore (SPR), Tie2-Fc immobilised on the sensor chip, Fc reference subtracted

Measured: binding

B1: CMP/CC-Ang1/FD (coiled-coil domain of CMP - fibrinogen domain of Ang1) (ligand)
chain: YKDDDDKGILDEDPCECKSIVKFQTKVEELINTLQQKLEAVAKRIEALENKIIGSLVNLCTKEGVLLKGGKREEEKPFRDCADVYQAGFNKSGIYTIYINNMPEPKKVFCNMDVNGGGWTVIQHREDGSLDFQRGWKEYKMGFGNPSGEYWLGNEFIFAIYSQRQYMLRIELMDWEGNRAYSQYDRFHIGNEKQNYRLYLKGHTGTAGKQSSLILHGADFSTKDADNDNCMCKCALMLTGGWWFDACGPSNLNGMFYTAGQNHGKLNGIKWHYFKGPSYSLRSTTMMIRPLDF
notes: The end, 310, is worked out from bases 1-933 including the stop codon; ~140 kDa and ~180 kDa were observed under non-reducing conditions; also called CMP-Ang1/FD; C/CC-A1/FD
binds: all assays above

B2: COMP/CC-Ang1/FD (coiled-coil domain of COMP - fibrinogen domain of Ang1) (ligand)
chain: DYKDDDDKGILDLAPQMLRELQETNAALQDVRELLRQQVKEITFLKNTVMECDACGGSLVNLCTKEGVLLKGGKREEEKPFRDCADVYQAGFNKSGIYTIYINNMPEPKKVFCNMDVNGGGWTVIQHREDGSLDFQRGWKEYKMGFGNPSGEYWLGNEFIFAIYSQRQYMLRIELMDWEGNRAYSQYDRFHIGNEKQNYRLYLKGHTGTAGKQSSLILHGADFSTKDADNDNCMCKCALMLTGGWWFDACGPSNLNGMFYTAGQNHGKLNGIKWHYFKGPSYSLRSTTMMIRPLDF
notes: The end, 312, is worked out from the stated lengths: 16 signal + 8 FLAG + 3 + 45 COMP + 2 + 238 Ang1 Leu261-498; ~180 kDa and ~250 kDa were observed under non-reducing conditions; also called COMP-Ang1/FD; CO/CC-A1/FD
binds: all assays above
